Laboratory results published in the supplement of paper PMC10849652.
This is one part of the list.

Sequences of proteins named here, by UniProt entry; tags and fusion partners are left off. A change or cut given only in a name is not applied to a line headed by its entry.
UniProt O60315: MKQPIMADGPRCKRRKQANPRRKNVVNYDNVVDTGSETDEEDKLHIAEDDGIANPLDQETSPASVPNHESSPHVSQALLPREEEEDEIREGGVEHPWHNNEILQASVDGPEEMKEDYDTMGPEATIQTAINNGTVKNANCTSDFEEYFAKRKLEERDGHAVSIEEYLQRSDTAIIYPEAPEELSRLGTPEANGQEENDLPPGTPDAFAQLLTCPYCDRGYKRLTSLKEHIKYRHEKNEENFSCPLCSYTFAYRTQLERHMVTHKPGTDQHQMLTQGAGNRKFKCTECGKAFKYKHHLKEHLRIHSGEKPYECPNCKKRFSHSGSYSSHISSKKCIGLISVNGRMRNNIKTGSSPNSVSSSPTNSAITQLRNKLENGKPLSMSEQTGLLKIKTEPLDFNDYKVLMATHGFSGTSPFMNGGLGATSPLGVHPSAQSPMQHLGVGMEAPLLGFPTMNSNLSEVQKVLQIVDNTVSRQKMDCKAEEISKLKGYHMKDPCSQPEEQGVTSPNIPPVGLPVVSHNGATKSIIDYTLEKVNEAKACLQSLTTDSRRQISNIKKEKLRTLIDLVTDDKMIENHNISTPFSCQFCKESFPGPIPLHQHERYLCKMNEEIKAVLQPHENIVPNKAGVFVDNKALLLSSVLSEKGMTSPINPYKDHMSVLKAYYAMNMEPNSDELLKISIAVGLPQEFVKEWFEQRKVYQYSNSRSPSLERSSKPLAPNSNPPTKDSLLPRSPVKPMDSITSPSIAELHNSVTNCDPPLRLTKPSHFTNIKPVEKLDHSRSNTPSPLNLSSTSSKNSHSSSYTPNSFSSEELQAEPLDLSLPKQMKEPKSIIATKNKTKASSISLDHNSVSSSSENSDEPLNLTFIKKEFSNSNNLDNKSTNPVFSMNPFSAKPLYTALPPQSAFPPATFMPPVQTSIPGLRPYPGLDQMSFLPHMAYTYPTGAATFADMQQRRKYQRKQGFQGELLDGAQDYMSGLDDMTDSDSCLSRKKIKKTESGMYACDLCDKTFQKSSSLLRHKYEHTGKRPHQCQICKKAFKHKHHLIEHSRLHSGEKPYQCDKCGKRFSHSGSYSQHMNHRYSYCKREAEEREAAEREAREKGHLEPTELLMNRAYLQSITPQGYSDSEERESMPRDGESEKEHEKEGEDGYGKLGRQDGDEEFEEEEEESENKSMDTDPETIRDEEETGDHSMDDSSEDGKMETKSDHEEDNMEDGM
UniProt Q5T750: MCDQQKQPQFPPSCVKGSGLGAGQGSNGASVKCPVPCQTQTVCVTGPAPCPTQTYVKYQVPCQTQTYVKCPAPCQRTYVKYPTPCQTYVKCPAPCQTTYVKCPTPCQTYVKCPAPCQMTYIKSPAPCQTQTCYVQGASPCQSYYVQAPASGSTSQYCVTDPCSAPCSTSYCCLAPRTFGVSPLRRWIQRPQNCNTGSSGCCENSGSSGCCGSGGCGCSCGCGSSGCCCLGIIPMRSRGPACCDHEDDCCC
UniProt Q96NC0: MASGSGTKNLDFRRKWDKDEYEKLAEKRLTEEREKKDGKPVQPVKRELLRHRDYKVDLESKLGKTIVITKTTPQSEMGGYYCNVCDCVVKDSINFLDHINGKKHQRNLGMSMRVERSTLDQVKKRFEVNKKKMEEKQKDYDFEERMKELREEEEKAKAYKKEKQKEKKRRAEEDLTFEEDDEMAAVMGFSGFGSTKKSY
UniProt Q86VM9: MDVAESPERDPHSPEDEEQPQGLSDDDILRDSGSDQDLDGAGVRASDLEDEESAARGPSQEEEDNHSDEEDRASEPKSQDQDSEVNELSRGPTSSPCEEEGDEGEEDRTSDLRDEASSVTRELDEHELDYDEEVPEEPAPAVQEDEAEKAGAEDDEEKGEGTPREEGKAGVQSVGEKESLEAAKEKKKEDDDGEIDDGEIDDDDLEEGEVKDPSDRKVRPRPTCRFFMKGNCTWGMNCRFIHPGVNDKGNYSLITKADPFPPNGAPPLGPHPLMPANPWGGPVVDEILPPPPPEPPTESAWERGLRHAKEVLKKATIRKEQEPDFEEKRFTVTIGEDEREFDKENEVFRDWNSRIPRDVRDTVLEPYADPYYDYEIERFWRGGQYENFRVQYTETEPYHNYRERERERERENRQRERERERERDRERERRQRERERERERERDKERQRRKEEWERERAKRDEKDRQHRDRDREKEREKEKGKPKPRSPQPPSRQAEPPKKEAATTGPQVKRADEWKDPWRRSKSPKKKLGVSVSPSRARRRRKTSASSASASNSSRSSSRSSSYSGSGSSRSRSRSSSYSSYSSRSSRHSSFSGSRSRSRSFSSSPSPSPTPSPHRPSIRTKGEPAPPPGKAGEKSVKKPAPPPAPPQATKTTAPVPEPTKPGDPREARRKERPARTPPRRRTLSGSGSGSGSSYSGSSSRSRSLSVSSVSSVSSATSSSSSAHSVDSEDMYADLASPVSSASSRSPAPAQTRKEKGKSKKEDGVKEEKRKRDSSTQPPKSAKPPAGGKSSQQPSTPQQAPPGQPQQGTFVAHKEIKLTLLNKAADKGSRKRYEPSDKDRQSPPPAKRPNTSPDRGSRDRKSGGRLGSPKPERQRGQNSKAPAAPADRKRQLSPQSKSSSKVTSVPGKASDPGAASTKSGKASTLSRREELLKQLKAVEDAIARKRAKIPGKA
UniProt Q9NXF8: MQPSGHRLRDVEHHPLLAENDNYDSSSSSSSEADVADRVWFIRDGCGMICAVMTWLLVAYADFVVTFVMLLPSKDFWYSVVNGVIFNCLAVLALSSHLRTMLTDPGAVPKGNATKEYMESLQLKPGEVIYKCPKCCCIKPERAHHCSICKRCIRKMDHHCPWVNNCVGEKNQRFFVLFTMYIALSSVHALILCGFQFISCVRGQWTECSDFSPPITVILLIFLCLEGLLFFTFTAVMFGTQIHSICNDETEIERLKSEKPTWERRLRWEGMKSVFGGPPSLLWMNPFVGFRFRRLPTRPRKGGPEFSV
UniProt O75362: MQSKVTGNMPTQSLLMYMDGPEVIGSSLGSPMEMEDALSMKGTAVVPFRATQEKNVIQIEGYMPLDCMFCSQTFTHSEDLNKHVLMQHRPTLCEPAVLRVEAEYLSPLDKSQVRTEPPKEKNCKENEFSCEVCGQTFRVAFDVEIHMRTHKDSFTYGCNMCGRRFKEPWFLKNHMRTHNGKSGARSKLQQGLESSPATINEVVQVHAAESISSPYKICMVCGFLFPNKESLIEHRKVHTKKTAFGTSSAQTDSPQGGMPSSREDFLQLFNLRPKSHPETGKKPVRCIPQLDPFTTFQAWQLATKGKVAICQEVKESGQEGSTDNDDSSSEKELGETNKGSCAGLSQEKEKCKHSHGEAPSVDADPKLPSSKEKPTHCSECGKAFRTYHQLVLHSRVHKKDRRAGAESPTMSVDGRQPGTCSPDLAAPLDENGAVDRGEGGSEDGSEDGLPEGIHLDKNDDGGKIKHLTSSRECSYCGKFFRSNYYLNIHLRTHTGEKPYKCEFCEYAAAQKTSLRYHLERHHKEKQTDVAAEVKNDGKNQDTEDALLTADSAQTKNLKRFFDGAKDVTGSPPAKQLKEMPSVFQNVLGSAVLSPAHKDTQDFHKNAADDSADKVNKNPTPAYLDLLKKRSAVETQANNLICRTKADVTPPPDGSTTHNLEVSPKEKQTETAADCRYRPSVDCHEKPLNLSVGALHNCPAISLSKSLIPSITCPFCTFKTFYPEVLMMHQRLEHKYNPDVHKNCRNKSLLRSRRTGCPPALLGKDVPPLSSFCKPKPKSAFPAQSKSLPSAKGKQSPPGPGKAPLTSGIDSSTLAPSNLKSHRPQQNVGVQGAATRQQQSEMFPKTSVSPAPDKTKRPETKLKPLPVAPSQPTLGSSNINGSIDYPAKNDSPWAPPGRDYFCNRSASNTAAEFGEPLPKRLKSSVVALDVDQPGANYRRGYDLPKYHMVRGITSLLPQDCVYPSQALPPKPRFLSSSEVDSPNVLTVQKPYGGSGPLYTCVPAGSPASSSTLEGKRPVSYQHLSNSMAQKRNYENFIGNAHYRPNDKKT
UniProt Q9UBW7: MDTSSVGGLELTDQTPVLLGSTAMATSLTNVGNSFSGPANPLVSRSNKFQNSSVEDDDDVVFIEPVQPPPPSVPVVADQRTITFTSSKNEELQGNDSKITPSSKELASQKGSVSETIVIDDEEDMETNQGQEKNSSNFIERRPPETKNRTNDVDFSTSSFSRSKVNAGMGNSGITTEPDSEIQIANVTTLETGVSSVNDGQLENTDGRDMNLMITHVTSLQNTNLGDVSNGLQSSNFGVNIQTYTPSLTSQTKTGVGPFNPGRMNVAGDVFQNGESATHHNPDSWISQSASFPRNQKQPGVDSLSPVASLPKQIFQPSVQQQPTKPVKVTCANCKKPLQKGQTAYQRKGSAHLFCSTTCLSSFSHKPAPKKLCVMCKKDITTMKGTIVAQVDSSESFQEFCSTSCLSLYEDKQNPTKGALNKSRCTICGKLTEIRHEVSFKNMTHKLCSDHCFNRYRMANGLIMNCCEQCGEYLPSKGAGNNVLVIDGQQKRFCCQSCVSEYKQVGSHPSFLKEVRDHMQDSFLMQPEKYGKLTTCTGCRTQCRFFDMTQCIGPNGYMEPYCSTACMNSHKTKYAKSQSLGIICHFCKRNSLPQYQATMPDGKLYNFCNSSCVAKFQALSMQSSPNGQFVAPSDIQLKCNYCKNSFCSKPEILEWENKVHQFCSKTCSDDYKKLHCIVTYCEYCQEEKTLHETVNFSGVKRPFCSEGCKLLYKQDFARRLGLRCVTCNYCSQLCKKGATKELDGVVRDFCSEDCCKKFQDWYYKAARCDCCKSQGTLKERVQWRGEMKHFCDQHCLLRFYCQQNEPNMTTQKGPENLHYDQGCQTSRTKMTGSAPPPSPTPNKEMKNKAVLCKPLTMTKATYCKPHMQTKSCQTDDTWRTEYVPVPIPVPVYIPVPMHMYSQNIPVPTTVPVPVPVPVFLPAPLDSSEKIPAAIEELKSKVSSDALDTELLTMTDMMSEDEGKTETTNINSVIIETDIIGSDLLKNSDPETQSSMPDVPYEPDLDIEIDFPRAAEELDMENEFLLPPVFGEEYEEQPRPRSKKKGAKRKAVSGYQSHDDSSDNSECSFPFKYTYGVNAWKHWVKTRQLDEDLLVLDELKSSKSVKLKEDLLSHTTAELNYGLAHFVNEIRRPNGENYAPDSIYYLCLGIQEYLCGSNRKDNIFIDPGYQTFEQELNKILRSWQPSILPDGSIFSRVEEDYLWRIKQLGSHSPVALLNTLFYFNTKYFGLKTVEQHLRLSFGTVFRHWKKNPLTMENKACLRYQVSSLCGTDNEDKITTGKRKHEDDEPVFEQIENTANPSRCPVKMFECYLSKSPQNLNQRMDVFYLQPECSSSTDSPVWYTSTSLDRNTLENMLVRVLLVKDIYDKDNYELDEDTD
UniProt P07947, whole entry, looked up: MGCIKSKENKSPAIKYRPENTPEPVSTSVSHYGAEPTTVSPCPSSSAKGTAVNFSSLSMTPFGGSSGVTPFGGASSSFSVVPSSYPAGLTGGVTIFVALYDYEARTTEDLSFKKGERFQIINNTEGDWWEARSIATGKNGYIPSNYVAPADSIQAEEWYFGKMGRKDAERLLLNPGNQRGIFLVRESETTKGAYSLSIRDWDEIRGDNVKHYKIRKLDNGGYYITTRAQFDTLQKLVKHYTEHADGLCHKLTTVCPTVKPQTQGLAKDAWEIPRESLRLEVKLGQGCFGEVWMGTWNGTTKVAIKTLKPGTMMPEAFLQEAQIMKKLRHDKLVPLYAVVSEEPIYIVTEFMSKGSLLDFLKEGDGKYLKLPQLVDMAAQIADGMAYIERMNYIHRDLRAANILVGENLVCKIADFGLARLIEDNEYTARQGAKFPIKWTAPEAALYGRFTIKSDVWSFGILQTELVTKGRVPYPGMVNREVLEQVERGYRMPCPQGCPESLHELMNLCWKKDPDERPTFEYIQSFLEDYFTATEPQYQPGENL
UniProt Q9BQ24: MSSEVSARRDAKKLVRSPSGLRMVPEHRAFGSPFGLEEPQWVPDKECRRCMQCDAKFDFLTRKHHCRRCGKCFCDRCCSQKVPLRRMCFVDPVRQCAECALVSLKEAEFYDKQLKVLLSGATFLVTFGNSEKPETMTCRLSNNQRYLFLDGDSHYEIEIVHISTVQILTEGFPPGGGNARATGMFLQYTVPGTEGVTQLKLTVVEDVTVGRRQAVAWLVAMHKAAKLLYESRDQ
UniProt O76080: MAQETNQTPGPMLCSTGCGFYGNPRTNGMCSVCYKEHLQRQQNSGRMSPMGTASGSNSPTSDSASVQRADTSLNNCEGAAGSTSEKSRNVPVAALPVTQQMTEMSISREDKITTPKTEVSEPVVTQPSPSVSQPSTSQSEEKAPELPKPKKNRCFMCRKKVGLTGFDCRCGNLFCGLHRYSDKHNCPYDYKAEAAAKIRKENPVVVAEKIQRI

Legend:
Assay in all cases: log2 fold change, soluble protein after heating vs DMSO (PISA); higher = thermal stabilisation; K562 cells, 10 uM, 30 min; active = over 0.2 and 3.5 SD of the protein, either way, in both replicates (recomputed)
[1] = compound: CN1CCN(CCOc2cc(OC3CCOCC3)c3c(Nc4c(Cl)ccc5c4OCO5)ncnc3c2)CC1 [saracatinib]
In short: (§1)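 Quantification of soluble protein used TMTpro 16plex LC-MS/MS, with channel sums equalised. Samples were the supernatant after 21,000xg for 90 min of pooled aliquots from K562 cells (2×10^6 cells/mL) treated with 10 μM compound for 30 min, heated for 3 min over 48°C-58°C, and extracted in PBS with 0.5% NP-40 at 4°C. Values, from duplicates, describe thermal stability against control samples on a log2 fold-change scale.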

[2] = compound: CN1CCN(c2nc(C3=C(c4c[nH]c5ccccc45)C(=O)NC3=O)c3ccccc3n2)CC1 [sotrastaurin]
In short: as §1

[3] = compound: CN1CCc2c(c3ccccc3n2Cc2ccc(C(=O)NO)cc2)C1 [Tubastatin A]
In short: as §1

[4] = compound: CNC(=O)C1=CC=CC=C1NC2=NC(=NC=C2Cl)NC3=C(C=C(C=C3)N4CCOCC4)OC
In short: as §1

[5] = compound: CNC(=O)c1ccc(Nc2ncc(C(F)(F)F)c(NCc3nccnc3N(C)S(C)(=O)=O)n2)cc1 [defactinib]
In short: as §1

[6] = compound: CNc1nc(-c2ccc3c(N)n[nH]c3c2)cc(N2C[C@@H](C(=O)NC3CCCCC3)CC[C@H]2C)n1
In short: as §1

[7] = compound: COC(=O)[C@H](CCSC)NC(=O)C1=C(C=C(C=C1)NC[C@H](CS)N)C2=CC=CC=C2
In short: as §1

[8] = compound: COC1=CC=C(C=C1)CN2C=CC3=C2C=C(C=C3)C(=O)NO
In short: as §1

[9] = compound: CON(C)C(=O)N1N=C(c2cc(F)ccc2F)S[C@@]1(CCCN)c1ccccc1 [filanesib]
In short: as §1

[10] = compound: COc1cc(Nc2ncc3c(n2)-c2ccc(Cl)cc2C(c2c(F)cccc2OC)=NC3)ccc1C(=O)O [alisertib]
In short: as §1

[11] = compound: COc1cc2nc(-c3cc(F)ccc3O)nc(N[C@@H]3CNC[C@H]3C(C)(C)O)c2cc1OC
In short: as §1

[12] = compound: COc1cc2ncnc(Nc3ccc(F)c(Cl)c3)c2cc1OCCCN1CCOCC1 [gefitinib]
In short: as §1

[13] = compound: COc1cccc2cc(-c3nc([C@H]4CC[C@H](C(=O)O)CC4)n4ncnc(N)c34)[nH]c12
In short: as §1

[14] = compound: CS(=O)(=O)CCNCc1ccc(-c2ccc3ncnc(Nc4ccc(OCc5cccc(F)c5)c(Cl)c4)c3c2)o1 [lapatinib]
In short: as §1

[15] = compound: CNCc1ccc(-c2[nH]c3cc(F)cc4c3c2CCNC4=O)cc1 [rucaparib]
In short: as §1

[16] = compound: COC(=O)N[C@@H](C)CNc1nccc(-c2cn(C(C)C)nc2-c2cc(Cl)cc(NS(C)(=O)=O)c2F)n1 [encorafenib]
In short: as §1

[17] = compound: CO[C@H]1C[C@@H]2CC[C@@H](C)[C@@](O)(O2)C(=O)C(=O)N2CCCC[C@H]2C(=O)O[C@H]([C@H](C)C[C@@H]2CC[C@H](n3cnnn3)[C@H](OC)C2)CC(=O)[C@H](C)/C=C(\C)[C@@H](O)[C@@H](OC)C(=O)[C@H](C)C[C@H](C)/C=C/C=C/C=C/1C [zotarolimus]
In short: as §1

[18] = compound: COc1cc(C(=O)O)ccc1NC(=O)[C@@H]1N[C@@H](CC(C)(C)C)[C@](C#N)(c2ccc(Cl)cc2F)[C@H]1c1cccc(Cl)c1F [idasanutlin]
In short: as §1

[19] = compound: CS(=O)(=O)N1CCN(Cc2cc3nc(-c4cccc5[nH]ncc45)nc(N4CCOCC4)c3s2)CC1 [pictilisib]
In short: as §1

[20] = compound: CN1CC[C@H](c2c(O)cc(O)c3c(=O)cc(-c4ccccc4Cl)oc23)[C@H](O)C1 [alvocidib]
In short: as §1

Measured: log2 fold change

ZEB2 (UniProt O60315)
inactive: [1] 0.008 | [2] -0.056 | [3] 0.181 | [4] -0.07 | [5] 0.019 | [6] -0.09 | [7] -0.382 | [8] -0.078 | [9] 0.025 | [10] 0.103 | [11] -0.018 | [12] -0.086 | [13] 0.051 | [14] 0.019

ZDHHC17 (UniProt Q8IUH5)
inactive: [1] -0.009 | [2] 0.099 | [3] -0.012 | [4] 0.146 | [5] -0.007 | [15] -0.034 | [6] 0.017 | [16] -0.015 | [7] 0.01 | [8] 0.137 | [9] -0.219 | [17] 0.039 | [18] -0.048 | [10] -0.02 | [11] 0.029 | [12] 0.04 | [13] 0.003 | [14] -0.022 | [19] 0.021

XP32 (UniProt Q5T750)
inactive: [1] -0.24 | [20] -0.144 | [15] -0.333 | [6] 0.369 | [16] -0.603 | [17] -0.256 | [18] 0.477 | [10] 1.1 | [12] 0.428 | [13] -0.004 | [19] 0.663

YLPM1 (UniProt P49750)
inactive: [1] 0 | [2] 0.021 | [3] 0.039 | [4] -0.006 | [5] -0.019 | [15] -0.07 | [6] 0.006 | [16] 0.052 | [7] -0.014 | [8] 0.018 | [9] 0.083 | [17] -0.001 | [18] -0.026 | [10] 0.017 | [11] 0.1 | [12] 0.002 | [13] 0.053 | [14] -0.028 | [19] 0.065

ZC2HC1A (UniProt Q96GY0)
inactive: [1] -0.099 | [20] 0.096 | [3] 0.156 | [4] -0.034 | [5] 0.045 | [15] 0.081 | [6] 0.021 | [16] -0.045 | [7] 0.121 | [8] -0.144 | [17] -0.02 | [18] 0.014 | [10] -0.011 | [11] -0.057 | [12] -0.042 | [13] -0.035 | [14] 0.001 | [19] 0.24

XRCC2 (UniProt O43543)
inactive: [1] -0.014 | [20] -0.118 | [4] -0.025 | [6] 0.155 | [17] 0.018 | [10] 0.158 | [11] -0.011 | [12] -0.037 | [13] -0.019 | [14] -0.063

ZMAT2 (UniProt Q96NC0)
active: [8] 0.378
inactive: [1] 0.026 | [2] -0.088 | [3] 0.057 | [4] -0.018 | [5] -0.014 | [15] -0.206 | [6] -0.058 | [16] 0.106 | [7] 0.019 | [9] -0.084 | [17] -0.034 | [18] 0.061 | [10] -0.045 | [11] -0.028 | [12] -0.021 | [13] 0.071 | [14] 0.016 | [19] 0.01

XPO5 (UniProt Q9HAV4)
inactive: [1] 0 | [2] -0.087 | [3] -0.03 | [4] 0.008 | [5] -0.142 | [15] -0.028 | [6] 0.026 | [16] 0.054 | [7] -0.004 | [8] 0.019 | [9] -0.122 | [17] 0.023 | [18] -0.055 | [10] -0.008 | [11] -0.068 | [12] -0.008 | [13] -0.052 | [14] -0.004 | [19] -0.034

ZC3H18 (UniProt Q86VM9)
inactive: [1] -0.072 | [2] -0.11 | [3] 0.129 | [4] -0.01 | [5] -0.234 | [15] 0.029 | [6] -0.136 | [16] -0.03 | [7] 0.045 | [8] -0.009 | [9] 0.217 | [17] 0.041 | [18] 0.23 | [10] -0.085 | [11] -0.066 | [12] -0.033 | [13] 0.014 | [14] 0.111 | [19] -0.019

ZDHHC7 isoform 2 (UniProt Q9NXF8)
inactive: [1] 0.034 | [3] -0.003 | [4] -0.016 | [5] 0.001 | [15] -0.067 | [6] -0.03 | [16] -0.043 | [7] 0.019 | [8] -0.022 | [17] -0.245 | [18] -0.013 | [11] -0.012 | [12] 0.062 | [14] 0.034 | [19] 0.089

ZNF217 (UniProt O75362)
inactive: [1] -0.083 | [2] -0.019 | [3] -0.086 | [4] -0.029 | [5] -0.145 | [15] -0.025 | [6] -0.183 | [16] -0.054 | [7] -0.067 | [8] -0.024 | [9] -0.045 | [17] -0.007 | [18] -0.027 | [10] -0.092 | [11] -0.026 | [12] 0.001 | [13] 0.043 | [14] 0.018 | [19] -0.038

2 consecutive records already listed, for reference:
XPO5 (UniProt Q9HAV4)
inactive: [1] 0 | [2] -0.087 | [3] -0.03 | [4] 0.008 | [5] -0.142 | [15] -0.028 | [6] 0.026 | [16] 0.054 | [7] -0.004 | [8] 0.019 | [9] -0.122 | [17] 0.023 | [18] -0.055 | [10] -0.008 | [11] -0.068 | [12] -0.008 | [13] -0.052 | [14] -0.004 | [19] -0.034

ZC3H18 (UniProt Q86VM9)
inactive: [1] -0.072 | [2] -0.11 | [3] 0.129 | [4] -0.01 | [5] -0.234 | [15] 0.029 | [6] -0.136 | [16] -0.03 | [7] 0.045 | [8] -0.009 | [9] 0.217 | [17] 0.041 | [18] 0.23 | [10] -0.085 | [11] -0.066 | [12] -0.033 | [13] 0.014 | [14] 0.111 | [19] -0.019

(continued)

ZMYM2 (UniProt Q9UBW7)
inactive: [1] -0.193 | [6] -0.032 | [8] 0.197 | [11] 0.252 | [14] -0.271

YWHAZ (UniProt E7ESK7)
inactive: [1] -0.076 | [3] 0.102 | [15] -0.057 | [6] -0.097 | [16] -0.156 | [8] 0.006 | [17] -0.072 | [18] -0.061 | [10] -0.041 | [11] 0.028 | [13] 0.187 | [14] -0.051

YES1 (UniProt P07947)
active: [1] -0.551 | [4] -0.623
inactive: [3] 0.094 | [5] -0.199 | [15] 0.169 | [6] -0.037 | [16] 0.242 | [7] -0.006 | [8] 0.072 | [17] 0.053 | [18] 0.041 | [10] -0.211 | [11] -0.052 | [12] -0.045 | [13] -0.256 | [14] 0.057 | [19] 0.093

ZFYVE21 isoform 2 (UniProt Q9BQ24)
inactive: [1] 0.11 | [3] 0.047 | [4] -0.13 | [5] 0.05 | [15] -0.066 | [6] 0.348 | [16] 0.075 | [7] 0.156 | [18] 0.129 | [19] -0.155

ZFAND5 (UniProt O76080)
inactive: [1] 0.08 | [2] 0.11 | [4] -0.141 | [5] 0.085 | [15] -0.012 | [6] -0.072 | [16] -0.047 | [7] 0.1 | [8] -0.032 | [9] 0.073 | [17] -0.012 | [18] 0.079 | [10] -0.057 | [11] 0 | [12] -0.006 | [13] 0.129 | [14] 0.038 | [19] 0.007
active: [3] 0.285

XPO1 (UniProt O14980)
inactive: [1] 0.003 | [2] -0.088 | [3] 0.001 | [4] -0.028 | [5] -0.093 | [15] -0.012 | [6] 0.02 | [16] 0.094 | [7] -0.041 | [8] 0.074 | [9] -0.121 | [17] 0.004 | [18] -0.123 | [10] -0.003 | [11] 0.023 | [12] -0.032 | [13] 0.001 | [14] -0.023 | [19] -0.071
